doi:10.1101/2021.01.28.428001 (bioRxiv, 2021)
Results are given in words; binding and its absence hold for the method and conditions named.

Protein sequences, listed by entry. Tags and fused reporters are not part of them. Lines headed by an entry give the natural chain unless they say otherwise; changes in a name come on top. Residues count along the entry.
UniProt Q15155, residues 32-1160: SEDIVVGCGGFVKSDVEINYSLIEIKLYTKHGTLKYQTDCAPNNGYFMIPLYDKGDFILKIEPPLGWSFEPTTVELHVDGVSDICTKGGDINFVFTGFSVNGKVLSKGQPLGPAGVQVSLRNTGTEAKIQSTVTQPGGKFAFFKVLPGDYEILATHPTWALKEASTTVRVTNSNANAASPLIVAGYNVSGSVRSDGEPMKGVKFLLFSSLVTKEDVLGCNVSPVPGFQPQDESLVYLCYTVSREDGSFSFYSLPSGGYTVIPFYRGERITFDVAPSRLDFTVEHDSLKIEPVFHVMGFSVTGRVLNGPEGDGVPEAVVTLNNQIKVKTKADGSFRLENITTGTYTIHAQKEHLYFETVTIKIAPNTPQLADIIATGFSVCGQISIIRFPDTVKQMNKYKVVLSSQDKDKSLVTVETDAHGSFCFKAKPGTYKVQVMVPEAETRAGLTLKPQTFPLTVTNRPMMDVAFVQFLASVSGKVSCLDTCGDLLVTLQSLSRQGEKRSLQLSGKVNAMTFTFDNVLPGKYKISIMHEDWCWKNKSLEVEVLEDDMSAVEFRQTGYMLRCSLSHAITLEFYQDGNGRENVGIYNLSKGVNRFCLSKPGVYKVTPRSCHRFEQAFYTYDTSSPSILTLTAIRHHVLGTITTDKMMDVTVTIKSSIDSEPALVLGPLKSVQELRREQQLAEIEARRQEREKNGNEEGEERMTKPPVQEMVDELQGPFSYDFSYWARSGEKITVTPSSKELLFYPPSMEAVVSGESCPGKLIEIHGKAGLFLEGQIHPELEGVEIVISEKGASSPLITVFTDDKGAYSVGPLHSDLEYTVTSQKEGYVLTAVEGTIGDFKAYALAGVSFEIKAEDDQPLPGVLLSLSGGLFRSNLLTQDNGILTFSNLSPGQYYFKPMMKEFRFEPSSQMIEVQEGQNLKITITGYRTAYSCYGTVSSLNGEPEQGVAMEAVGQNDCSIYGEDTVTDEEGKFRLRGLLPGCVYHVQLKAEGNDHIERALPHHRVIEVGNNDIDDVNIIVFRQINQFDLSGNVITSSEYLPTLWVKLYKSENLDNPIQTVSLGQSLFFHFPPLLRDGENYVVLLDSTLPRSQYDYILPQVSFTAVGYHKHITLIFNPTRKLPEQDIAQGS

Biological target: NOMOΔTM-FLAG (NOMO1 residues 1-1160, lacking the transmembrane and cytosolic domains) (human) (UniProt Q15155)
Experiment: SEC-MALS

- binding: no binding
Substance: NOMOΔTM-FLAG (NOMO1 residues 1-1160, lacking the transmembrane and cytosolic domains) (from UniProt Q15155 32-1160) (domain or fragment)
